Assay results taken from ChEMBL document CHEMBL1909046, “DrugMatrix in vitro pharmacology data”.

Chains of the proteins cited; added tags and fusions are not shown.
UniProt P27361, whole entry: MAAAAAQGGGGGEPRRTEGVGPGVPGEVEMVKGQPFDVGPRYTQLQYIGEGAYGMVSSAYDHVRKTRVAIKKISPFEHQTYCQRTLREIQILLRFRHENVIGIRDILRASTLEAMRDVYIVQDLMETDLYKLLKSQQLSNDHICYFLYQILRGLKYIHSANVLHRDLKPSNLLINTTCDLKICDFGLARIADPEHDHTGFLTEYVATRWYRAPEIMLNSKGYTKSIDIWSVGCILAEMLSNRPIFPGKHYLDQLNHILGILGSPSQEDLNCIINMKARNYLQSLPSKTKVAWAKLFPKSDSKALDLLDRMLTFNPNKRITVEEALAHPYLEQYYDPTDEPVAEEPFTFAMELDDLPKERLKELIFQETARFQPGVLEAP
UniProt P28482, whole entry: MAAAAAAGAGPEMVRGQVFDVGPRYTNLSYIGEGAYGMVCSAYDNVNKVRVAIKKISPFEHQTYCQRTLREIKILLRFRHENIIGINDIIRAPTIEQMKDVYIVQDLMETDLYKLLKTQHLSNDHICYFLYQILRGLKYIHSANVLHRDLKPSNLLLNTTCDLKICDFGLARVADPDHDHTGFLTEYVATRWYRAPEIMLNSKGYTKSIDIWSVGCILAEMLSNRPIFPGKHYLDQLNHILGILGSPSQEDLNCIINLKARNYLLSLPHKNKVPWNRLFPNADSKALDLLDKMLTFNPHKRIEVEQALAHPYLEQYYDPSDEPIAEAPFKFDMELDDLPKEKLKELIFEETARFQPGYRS
UniProt Q16539, whole entry: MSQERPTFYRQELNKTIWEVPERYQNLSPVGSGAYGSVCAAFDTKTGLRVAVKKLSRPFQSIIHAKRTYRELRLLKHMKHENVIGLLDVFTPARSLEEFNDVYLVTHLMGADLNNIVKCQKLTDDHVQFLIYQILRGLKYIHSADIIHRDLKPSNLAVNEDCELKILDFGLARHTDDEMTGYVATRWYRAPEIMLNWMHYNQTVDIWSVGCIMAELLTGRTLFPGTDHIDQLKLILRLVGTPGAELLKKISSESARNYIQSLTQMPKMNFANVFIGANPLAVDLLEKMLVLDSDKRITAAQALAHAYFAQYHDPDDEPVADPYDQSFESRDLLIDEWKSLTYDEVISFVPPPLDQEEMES

Assays:
Set-up in all cases: species or system Escherichia coli
[1] = target: T1, 3-hydroxy-3-methylglutaryl-coenzyme A reductase (Homo sapiens, UniProt P04035);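 further: enzyme inhibition assay of HMG-CoA reductase using radiolabeled [14C]HMG-CoA as substrate; in other assays of this panel Not Active means under 50% inhibition at 10 µM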
T1 sequence (P04035 whole entry): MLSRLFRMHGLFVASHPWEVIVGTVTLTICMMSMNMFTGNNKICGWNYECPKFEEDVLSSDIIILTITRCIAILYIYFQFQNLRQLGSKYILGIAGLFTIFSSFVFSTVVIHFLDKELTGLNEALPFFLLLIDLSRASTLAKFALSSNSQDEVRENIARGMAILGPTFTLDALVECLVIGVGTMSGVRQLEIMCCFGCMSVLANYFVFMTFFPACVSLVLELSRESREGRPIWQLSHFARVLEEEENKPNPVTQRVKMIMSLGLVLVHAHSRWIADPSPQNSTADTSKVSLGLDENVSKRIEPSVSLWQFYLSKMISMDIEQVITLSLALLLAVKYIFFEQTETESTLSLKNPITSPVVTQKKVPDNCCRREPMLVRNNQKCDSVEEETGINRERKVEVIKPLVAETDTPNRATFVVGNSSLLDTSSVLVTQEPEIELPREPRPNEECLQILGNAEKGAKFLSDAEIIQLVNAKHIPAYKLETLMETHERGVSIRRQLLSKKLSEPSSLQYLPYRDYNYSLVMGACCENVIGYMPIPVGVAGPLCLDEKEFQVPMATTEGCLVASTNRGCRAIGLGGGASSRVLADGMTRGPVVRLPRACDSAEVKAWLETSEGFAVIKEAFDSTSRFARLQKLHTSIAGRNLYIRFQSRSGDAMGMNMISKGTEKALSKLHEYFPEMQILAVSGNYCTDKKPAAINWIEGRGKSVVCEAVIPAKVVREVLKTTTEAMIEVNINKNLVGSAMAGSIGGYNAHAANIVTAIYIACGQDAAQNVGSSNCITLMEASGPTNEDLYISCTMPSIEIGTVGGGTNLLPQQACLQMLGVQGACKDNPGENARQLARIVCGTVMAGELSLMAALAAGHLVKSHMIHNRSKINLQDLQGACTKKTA

[2] = target: T2, Nitric oxide synthase, inducible (Mus musculus, UniProt P29477);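 further: inhibition of iNOS enzyme activity measured with L-arginine as substrate; in other assays of this panel Not Active means under 50% inhibition at 10 µM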
T2 sequence (P29477 whole entry): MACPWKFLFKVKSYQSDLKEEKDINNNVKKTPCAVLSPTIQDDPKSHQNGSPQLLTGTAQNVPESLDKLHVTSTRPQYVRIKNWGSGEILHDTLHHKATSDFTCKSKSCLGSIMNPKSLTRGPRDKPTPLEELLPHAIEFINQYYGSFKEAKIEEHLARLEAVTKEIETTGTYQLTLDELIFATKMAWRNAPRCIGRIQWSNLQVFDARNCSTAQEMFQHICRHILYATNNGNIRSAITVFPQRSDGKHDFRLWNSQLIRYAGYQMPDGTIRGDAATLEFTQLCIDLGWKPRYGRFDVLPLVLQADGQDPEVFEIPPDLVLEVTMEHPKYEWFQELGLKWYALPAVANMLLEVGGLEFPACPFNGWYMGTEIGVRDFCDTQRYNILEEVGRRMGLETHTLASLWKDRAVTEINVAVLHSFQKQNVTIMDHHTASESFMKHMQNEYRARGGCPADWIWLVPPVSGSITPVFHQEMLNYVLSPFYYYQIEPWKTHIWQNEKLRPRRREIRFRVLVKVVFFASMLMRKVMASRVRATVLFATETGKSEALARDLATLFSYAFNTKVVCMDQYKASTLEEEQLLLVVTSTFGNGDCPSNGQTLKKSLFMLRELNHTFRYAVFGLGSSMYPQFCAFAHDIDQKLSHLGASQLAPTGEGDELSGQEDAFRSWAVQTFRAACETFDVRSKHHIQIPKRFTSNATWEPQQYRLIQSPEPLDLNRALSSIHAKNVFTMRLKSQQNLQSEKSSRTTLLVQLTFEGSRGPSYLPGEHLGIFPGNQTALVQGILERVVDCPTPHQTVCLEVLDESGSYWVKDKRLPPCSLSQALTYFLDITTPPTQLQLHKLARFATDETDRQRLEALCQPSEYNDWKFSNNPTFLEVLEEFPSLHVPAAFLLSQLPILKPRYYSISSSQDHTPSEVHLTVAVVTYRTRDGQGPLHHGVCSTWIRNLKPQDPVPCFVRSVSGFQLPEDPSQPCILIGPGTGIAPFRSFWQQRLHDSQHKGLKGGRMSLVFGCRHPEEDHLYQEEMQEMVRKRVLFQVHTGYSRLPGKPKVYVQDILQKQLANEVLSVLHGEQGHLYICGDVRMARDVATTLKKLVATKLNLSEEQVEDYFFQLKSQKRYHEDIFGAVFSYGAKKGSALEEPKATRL

Caspase-1 = target: T3, Caspase-1 (Homo sapiens, UniProt P29466);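 further: Caspase-1 enzyme inhibition assay with a peptide substrate; in other assays of this panel Not Active means under 50% inhibition at 10 µM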
T3 sequence (P29466 whole entry): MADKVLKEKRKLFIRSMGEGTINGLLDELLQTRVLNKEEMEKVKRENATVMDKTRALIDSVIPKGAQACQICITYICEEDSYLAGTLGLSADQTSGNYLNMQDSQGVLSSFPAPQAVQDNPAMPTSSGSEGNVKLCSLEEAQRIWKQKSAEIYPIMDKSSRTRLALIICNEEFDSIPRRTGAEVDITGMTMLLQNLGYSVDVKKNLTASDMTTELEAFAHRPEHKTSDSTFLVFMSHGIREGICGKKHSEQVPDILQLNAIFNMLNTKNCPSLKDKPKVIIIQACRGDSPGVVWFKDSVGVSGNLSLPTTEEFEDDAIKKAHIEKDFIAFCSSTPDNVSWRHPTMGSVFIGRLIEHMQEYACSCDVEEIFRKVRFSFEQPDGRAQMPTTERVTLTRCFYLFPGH

[3] = target: Mitogen-activated protein kinase 3 (Homo sapiens, UniProt P27361); experiment: DRUGMATRIX: Protein Serine/Threonine Kinase, ERK1 enzyme inhibition (substrate: Myelin Basic Protein); details: Not Active = under 50% inhibition at 10 µM
[4] = target: Mitogen-activated protein kinase 1 (Homo sapiens, UniProt P28482); experiment: DRUGMATRIX: Protein Serine/Threonine Kinase, ERK2 enzyme inhibition (substrate: Myelin Basic Protein); details: Not Active = under 50% inhibition at 10 µM
[5] = target: Mitogen-activated protein kinase 14 (Homo sapiens, UniProt Q16539);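 further: inhibition of p38alpha enzyme activity in a biochemical kinase assay, with myelin basic protein serving as substrate; in other assays of this panel Not Active means under 50% inhibition at 10 µM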
[6] = target: Protein phosphatase 3 catalytic subunit alpha (Homo sapiens, UniProt Q08209)
[7] = target: T4, Receptor-type tyrosine-protein phosphatase C (Homo sapiens, UniProt P08575)
T4 sequence (P08575 whole entry): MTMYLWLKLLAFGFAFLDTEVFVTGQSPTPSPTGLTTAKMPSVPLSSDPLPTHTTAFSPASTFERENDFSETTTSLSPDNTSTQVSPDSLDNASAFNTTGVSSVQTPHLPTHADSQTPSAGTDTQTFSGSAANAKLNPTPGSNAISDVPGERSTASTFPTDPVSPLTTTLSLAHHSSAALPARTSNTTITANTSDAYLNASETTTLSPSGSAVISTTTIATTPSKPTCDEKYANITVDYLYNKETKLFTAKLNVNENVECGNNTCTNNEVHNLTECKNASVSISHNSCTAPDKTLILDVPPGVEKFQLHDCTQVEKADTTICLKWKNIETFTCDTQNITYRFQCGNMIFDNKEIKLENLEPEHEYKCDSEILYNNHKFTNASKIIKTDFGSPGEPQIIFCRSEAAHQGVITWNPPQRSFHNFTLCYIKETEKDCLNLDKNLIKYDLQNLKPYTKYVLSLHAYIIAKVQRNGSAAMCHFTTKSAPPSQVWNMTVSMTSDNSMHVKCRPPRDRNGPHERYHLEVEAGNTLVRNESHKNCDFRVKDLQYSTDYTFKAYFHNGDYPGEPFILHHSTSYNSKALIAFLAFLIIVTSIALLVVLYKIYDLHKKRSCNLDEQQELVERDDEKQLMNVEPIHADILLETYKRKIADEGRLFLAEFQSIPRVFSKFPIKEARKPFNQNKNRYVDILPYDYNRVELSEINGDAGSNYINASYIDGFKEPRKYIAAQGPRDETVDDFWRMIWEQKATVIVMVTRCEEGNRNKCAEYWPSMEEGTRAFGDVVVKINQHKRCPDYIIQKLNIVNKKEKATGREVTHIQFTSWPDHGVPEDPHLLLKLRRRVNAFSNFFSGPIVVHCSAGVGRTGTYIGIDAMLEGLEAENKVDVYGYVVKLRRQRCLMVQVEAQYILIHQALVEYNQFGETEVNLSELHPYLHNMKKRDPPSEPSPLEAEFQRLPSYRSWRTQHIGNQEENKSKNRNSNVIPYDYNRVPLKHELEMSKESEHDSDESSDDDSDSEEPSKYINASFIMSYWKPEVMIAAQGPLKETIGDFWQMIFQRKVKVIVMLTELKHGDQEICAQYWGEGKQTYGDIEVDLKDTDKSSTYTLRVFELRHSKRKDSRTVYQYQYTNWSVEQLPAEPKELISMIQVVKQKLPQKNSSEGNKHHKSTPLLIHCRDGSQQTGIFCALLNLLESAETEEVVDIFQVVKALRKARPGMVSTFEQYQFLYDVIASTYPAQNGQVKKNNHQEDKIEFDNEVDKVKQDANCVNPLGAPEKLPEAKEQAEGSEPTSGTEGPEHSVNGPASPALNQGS

Measured: IC50

Cc1cnc(C(=O)NCCc2ccc(S(=O)(=O)NC(=O)NC3CCCCC3)cc2)cn1 [GLIPIZIDE]
Not Active: [1] | [2] | Caspase-1 | [3] | [4] | [5] | [6] | [7]
